Hit rate of the full screen: of about 320,000 compounds, about 2,100 (0.66%) were called active. Inconclusive means that the source gave no clear call. Such entries were picked first, then a sample of the others. Calls follow the shape of the dose curve; as a rule, active = well fitted inhibition curve with a large enough effect in the signal ratio, with a control signal flat (not every such curve was filed as active); inconclusive = small, poorly fitted or top-dose-only effect, or effect the other way, or a change in a side signal; inactive = flat fitted curve, though single readings scatter; the % refers to the signal ratio. Potencies of inconclusive entries are doubtful fits and often do not repeat.
Assay: qHTS Assay for Lipid Storage Modulators in Drosophila S3 Cells
Details: BODIPY lipid droplet fluorescence, 18-24 h, cells fed with added oleic acid; lipid storage change, negative = inhibition: at 46.1 µM (top of the series) unless noted
Procedure, shortened: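 Drosophila S3 cells got compounds at several concentrations plus oleic acid (400 uM solution). Laser-scanning cytometry with 488 nm excitation read lipid droplets at 500-530 nm and cells at 575-640 nm. Percent activity was relative to 20 uM Triacsin C.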
% is scaled to controls: 0 for no effect and ±100 for the full control effect; potency is read from the fitted curve at half-maximal effect.

| SMILES | lipid storage change, negative = inhibition | Potency |
| --- | --- | --- |
| CC(C)Nc1nc(-c2ccccc2)nnc1-c1ccccc1 | inconclusive: -24.1% | – |
| Cc1oc(-c2ccccc2F)nc1CS(=O)(=O)CC(=O)N1CCN(c2ccccc2)CC1 | inconclusive: -15.2% | – |
| O=C(Nc1ccccc1C(F)(F)F)NC1CCCCC1 | inconclusive: 89.1% | – |
| C=CCOC(=O)c1[nH]c2c(c1C)C(=O)CC(c1ccco1)C2 (centres undefined) | inconclusive: 41.6% | – |
| Cc1cc(C(=O)CCC(=O)NCc2ccccc2F)c(C)s1 | inconclusive | – |
| O=C(NCc1ccc(Cl)cc1)c1ccc(CSc2nc3ccncc3[nH]2)cc1 | inconclusive: 16.8% | – |
| O=C(Nc1cccnc1)Nc1cccc(F)c1 | – | inconclusive: 5.17 µM [activator, full curve] |
| COc1ccc(C(=O)N2CCC(n3c(C)nc4cc(F)ccc43)CC2)cc1OC | – | inconclusive: 0.164 µM [falling, full curve, poor fit] |
| COC(=O)c1nn(-c2ccc(-c3ccccc3)cc2)cc1O | inconclusive: 38.2% | – |
| COc1ccc(-c2cc(C(=O)Nc3cc(Br)ccc3O)no2)cc1 | inconclusive: 51% | – |
| Cc1ccc(C(=O)N/C(=C/c2ccc(-c3cc(C(F)(F)F)ccc3Cl)o2)C(=O)NCc2cccnc2)cc1 | inconclusive: -4.74% | – |
| Cc1cc(C)c(OCCCCN2CCNCC2)c(C)c1 | – | inconclusive: 29.1 µM [activator, single point] |
| CC1CCCCN1Cc1c(O)ccc2c(=O)c(-c3nc4ccccc4s3)c(N)oc12 (centres undefined) | inconclusive: -98.2% | – |
| CN1/C(=C\C(=O)Nc2cccc(Cl)c2)C(C)(C)c2ccccc21 | – | inconclusive: 29.1 µM [falling, single point] |
| COc1ccc(Cn2c(O)c(/C=C3/C=CC=N3)c(=O)[nH]c2=O)cc1 | inconclusive: 11.3% | – |
| COC(=O)N/N=C\c1ccccc1OC/C=C/c1ccccc1 | inconclusive: 7.46% | – |
| CC1=C(C(=O)NCCN2CCOCC2)C2(CCC(C)CC2)OC1=O (centres undefined) | inconclusive: -18.8% | – |
| COc1ccccc1NC(=O)Cn1c(CCC(=O)O)ccc1-c1ccc(C)cc1 | inconclusive: 6.74% | – |
| CC(=O)c1cccc(NC(=O)NCCc2ccc(Cl)cc2)c1 | inconclusive: 200% | – |
| CCn1c(SCC(=O)N/N=C/c2ccc(C)s2)nc2ccccc21 | inconclusive: -3.28% | – |
| Cn1c(CNC(=O)c2ccco2)nnc1SCC(=O)Nc1c(F)cc(F)cc1Br | inconclusive: 1.78% | – |
| O=C(CN(c1ccccc1)S(=O)(=O)c1ccccc1[N+](=O)[O-])Nc1cccnc1 | – | inconclusive: 29.1 µM [activator, single point] |
| Cc1cccc(NC(=O)c2sc(-c3ccccc3)nc2-c2ccc([N+](=O)[O-])cc2)c1 | – | inconclusive: 29.1 µM [falling, single point] |
| COc1ccccc1N1CCN(C(=O)COc2ccc(C)cc2Br)CC1 | inconclusive: 38.6% | – |
| CC1CCN(C(=O)CSc2nnc(-c3cc4ccccc4cc3O)n2Cc2ccco2)CC1 | inconclusive: 53.9% | – |

2 entries drawn at random from the list so far, as already listed:

| SMILES | lipid storage change, negative = inhibition | Potency |
| --- | --- | --- |
| O=C(NCc1ccc(Cl)cc1)c1ccc(CSc2nc3ccncc3[nH]2)cc1 | inconclusive: 16.8% | – |
| CCn1c(SCC(=O)N/N=C/c2ccc(C)s2)nc2ccccc21 | inconclusive: -3.28% | – |

Later entries.

| SMILES | lipid storage change, negative = inhibition | Potency |
| --- | --- | --- |
| Cn1ncc(Cl)c1C(=O)NCc1ccco1 | – | inconclusive: 6.51 µM [falling, single point] |
| CSc1ccccc1NC(=O)CN(c1cc(C)cc(C)c1)S(C)(=O)=O | inactive | – |
| C/C(=N\NC(=O)c1ccn(C)n1)c1ccc(NC(=O)C2CCCC2)cc1 | inconclusive: -3.76% | – |
| Clc1cccc(Cl)c1CSc1nnc(-c2sccc2-n2cccc2)o1 | – | inconclusive: 0.0052 µM [falling, full curve] |
| CCCCOc1ccc(C(NC(=O)OCC)NC(=O)OCC)cc1 | – | inconclusive: 29.1 µM [rising, single point] |
| Cc1csc(=O)n1CC(=O)OCc1nnc(-c2ccc(Cl)cc2)o1 | inconclusive: 29.9% | – |
| CC1CCCCC12NC(=O)N(CC(=O)NCCc1ccc(S(N)(=O)=O)cc1)C2=O (centres undefined) | – | inconclusive: 4.61 µM [activator, full curve, poor fit] |
| Cc1ccc(CN2CCC(n3nccc3NC(=O)C3CCOC3)CC2)cc1C (centres undefined) | inconclusive: 30.4% | – |
| COc1ccc(OCC(=O)NCCc2c[nH]c3ccccc23)cc1 | inactive | – |
| Cc1cc(=O)[nH]c(N/N=C/c2ccc(OC(=O)c3ccco3)cc2)n1 | – | inconclusive: 13 µM [falling, partial curve, poor fit] |
| COc1cc(/C=N/NC(=O)c2cc(C)oc2C)ccc1O | inconclusive: -1.68% | – |
| COc1ccc(OCC(=O)NNC(=O)c2cc3ccccc3o2)cc1 | inconclusive: 18.6% | – |
| Cn1nnnc1SCC(=O)Nc1cc(S(=O)(=O)N2CCCC2)ccc1Cl | inconclusive: 33.6% | – |
| CCCCCc1ccc(-c2cn(Cc3ccc([N+](=O)[O-])cc3)nn2)cc1 | inconclusive: -28.7% | – |
| Cc1c(CCC(=O)NCC(=O)NCC(=O)O)c(=O)oc2cc3oc4c(c3cc12)CCCC4 | – | inconclusive: 16.4 µM [falling, single point] |
| C[C@@H]1O[C@@H](O[C@H]2[C@H](O)[C@@H](O)[C@H](Oc3c(-c4ccc(O)c(O)c4)oc4cc(O)cc(O)c4c3=O)O[C@@H]2CO)[C@H](O)[C@H](O)[C@H]1O | inconclusive: 50.8% | – |
| CCN(CC(=O)Nc1ccccc1C(F)(F)F)C(=O)C1CCC1 | inconclusive: -5.42% | – |
| CC(C)OCCCN(C)C1CCN(S(=O)(=O)c2ccc(-c3cc(C(F)(F)F)no3)s2)CC1 | inconclusive: -6.98% | – |
| O=C(Nc1nnc(-c2ccc(F)cc2)o1)C1CCCN1S(=O)(=O)c1cccs1 (centres undefined) | inconclusive | – |
| COC(=O)c1ccc(CSc2nc3cc(Cl)ccc3s2)o1 | inconclusive: -66.4% | – |
| Brc1ccc2[nH]c3c(NCc4ccccn4)ncnc3c2c1 | inconclusive: -21.8% | – |
| C/C(=N/OCC(=O)NCCCCCCNC(=O)CO/N=C(/C)c1cccs1)c1cccs1 | – | inconclusive: 29.1 µM [rising, single point] |
| CCN=C1S/C(=C/c2ccc(-c3ccc(F)cc3)o2)C(=O)N1CC | – | active: 18.4 µM |
| CCOc1ccc(N(C)Cc2cc(=O)oc3ccc(OCC)cc23)cc1 | – | inconclusive: 0.0651 µM [activator, partial curve, poor fit] |

From PubChem BioAssay AID2685 (National Center for Advancing Translational Sciences (NCATS), 2010)
